Results reported in PubChem BioAssay AID1688 (National Center for Advancing Translational Sciences (NCATS), 2009).
The whole screen tested about 220,000 compounds, of which about 2,400 (1.1%) were called active. This list was built around the results that the source calls inconclusive (neither active nor inactive); the mix of calls is not that of the screen. Calls follow the shape of the dose curve; as a rule, active = well fitted inhibition curve with a large enough effect; inconclusive = small, poorly fitted or top-dose-only effect, or effect the other way; inactive = no such curve, though single readings can be large or run the other way. Where the call is inconclusive, the potency comes from a doubtful curve fit.

assay: qHTS Multiplex Assay to Identify Dual Action Probes in a Cell Model of Huntington: Aggregate Formation (GFP); details: PC12 HttQ103-GFP aggregates, Acumen cytometry, 40 h; activity change, negative = inhibition: at 46.1 µM (top of the series) unless noted; also: nearly all actives have a fitted effect of over 60% in size
In short: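 Compounds (qHTS titration) were added to PC12 cells expressing an ecdysone-driven HTT exon 1 Q103–GFP fusion after induction with 100 nM tebufenozide. Aggregate formation was measured as GFP objects in cell lysates.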
% is scaled to controls: 0 for no effect and ±100 for the full control effect; potency is read from the fitted curve at half-maximal effect.

| SMILES | Potency | activity change, negative = inhibition |
| --- | --- | --- |
| Cc1oc(-c2ccc(Cl)cc2)nc1CN1CCC(C(=O)NCc2cccnc2)CC1 | inconclusive: 12.6 µM [inhibitor, single point] | – |
| CCOc1nc2c(c(=O)n(C)c(=O)n2C)n1Cc1ccccc1Cl | inconclusive: 11.2 µM [inhibitor, partial curve] | – |
| CCc1ccc(N(C(=O)c2ccoc2C)C(C(=O)NC2CCCC2)c2ccc(OC)cc2)cc1 (configuration not stated) | – | inactive: -8.17% |
| CCOC(=O)C1=C(C)N=c2s/c(=C3\C(=O)Nc4ccccc43)c(=O)n2C1c1ccc2c(c1)OCO2 (configuration not stated) | – | inactive: 18.7% |
| CCOC(=O)c1sc2nc(N3CCCC3)c3c(c2c1N)CC(C)(C)OC3 | inconclusive: 8.91 µM [activator, partial curve] | – |
| N=c1c2c(n(Cc3ccc(F)cc3)c3c1CCC3)CCCC2 | inconclusive: 10 µM [inhibitor, partial curve] | – |
| COc1ccc2[nH]c3c(N4CCC(O)(c5cccc(C(F)(F)F)c5)CC4)ncnc3c2c1 | inconclusive: 35.5 µM [inhibitor, single point] | – |
| O=C(c1cnn2c(C(F)F)cc(-c3ccccc3)nc12)N1CCc2ccccc2C1 | – | inactive: 19.9% [at 9.22 µM] |
| CN(C)S(=O)(=O)c1ccc2oc(SCC(N)=O)nc2c1 | inconclusive: 17.8 µM [activator, single point] | – |
| Cc1cccc(C)c1NC(=O)NC1CC2CCC(C1)N2Cc1cccs1 (configuration not stated) | – | inactive: -7.69% |
| O=C(CCS(=O)(=O)c1ccccc1)Nc1nc2c(s1)COc1ccccc1-2 | inconclusive: 35.5 µM [inhibitor, single point] | – |
| COCCN=C1Sc2nc3c(C)cccc3cc2CN1Cc1ccco1 | inconclusive: 35.5 µM [inhibitor, single point] | – |
| COc1cccc(-c2ccc(SCC(=O)N3CCN(c4ccccc4)CC3)nn2)c1 | inconclusive: 17.8 µM [inhibitor, single point] | – |
| CCCCCCC[N+](CC)(CC)CCCCc1ccc(Cl)cc1 | inconclusive: 14.1 µM [inhibitor, single point] | – |
| CC(C)(C)n1ncc2c(=O)n(CC(=O)N3CCCCCC3)cnc21 | – | inactive: 7.87% |
| COc1ccc(OC)c(CNC(=O)Cc2c(C(=O)O)[nH]c3ccccc23)c1 | inconclusive: 22.4 µM [inhibitor, single point] | – |
| CCOC(=O)c1c(NC(=O)CN2CCOCC2)sc2c1CC(C)(C)OC2 | – | inactive: 6.36% |
| COc1cc2nc(CN3CCC(C(O)(c4ccccc4)c4ccccc4)CC3)[nH]c(=O)c2cc1OC | – | inactive: -5.65% |
| O=C(CN(c1ccc(Cl)c(C(F)(F)F)c1)S(=O)(=O)c1ccccc1)N/N=C/c1cccc2c1OCCO2 | inconclusive: 25.1 µM [inhibitor, single point] | – |
| Cc1nnc(SCC(=O)N2CC(=O)Nc3ccccc32)n1C | – | inactive: 1.02% |
| Cc1ccc(C(=O)Nc2ncc(Cc3ccc(SC(F)F)cc3)s2)cc1 | inconclusive: 0.501 µM [inhibitor, full curve, poor fit] | – |
| Cc1cc(C)nc(-n2nc(C)cc2NC(=O)CN2CCc3ccccc3C2)n1 | inconclusive: 0.891 µM [activator, full curve, poor fit] | – |
| COc1ccc(OCC(=O)N2CCN(c3nnc(-c4ccccc4)c4ccccc34)CC2)cc1 | inconclusive: 35.5 µM [inhibitor, single point] | – |
| O=C(Nc1nc2c(s1)CCCC2)c1ccc(S(=O)(=O)N2CCCc3ccccc32)cc1 | – | inactive: -30.4% |

| SMILES | Potency | activity change, negative = inhibition |
| --- | --- | --- |
| O=C(CCc1ccc(O)c(O)c1)NNC(=S)Nc1ccc(Br)cc1Cl | inconclusive: 12.6 µM [activator, single point] | – |
| Cc1ccc(C(=O)CCNc2ccc(F)c(Cl)c2)o1 | – | inactive: -20.9% |
| Cc1ccc2cc(CN(Cc3nnnn3C3CCCCC3)CC3CCCO3)c(=O)[nH]c2c1 (configuration not stated) | – | inactive: -3.94% |
| CC[N+]1(C)CCC(=C2c3ccccc3CC(=O)c3sccc32)CC1 (configuration not stated) | – | inactive: 16.9% |
| CC1CCN(C2=C(NS(=O)(=O)c3ccc(Cl)cc3)C(=O)c3ccccc3C2=O)CC1 | inconclusive: 14.1 µM [inhibitor, partial curve] | – |
| O=C1OCCC1Sc1nnc(-c2ccc(Cl)cc2Cl)o1 (configuration not stated) | – | inactive: 1.58% [at 9.22 µM] |
| CCOCCCNC(=O)C1CCC(CNS(=O)(=O)c2ccc(F)cc2)CC1 (configuration not stated) | inconclusive: 14.1 µM [inhibitor, single point] | – |
| Cc1nc2ccccc2nc1N/N=C/c1ccc(O)cc1O | inconclusive: 6.31 µM [inhibitor, single point] | – |
| C=C(C)c1cccc(C(C)(C)NC(=O)Nc2ncccn2)c1 | inconclusive: 35.5 µM [inhibitor, single point] | – |
| O=c1cc(/C=C/c2ccccc2)oc2c1ccc1ccccc12 | inconclusive: 15.8 µM [inhibitor, single point] | – |
| COc1cccc(-n2nnc3c(=O)n(CC(=O)Nc4ccc(C)cc4)cnc32)c1 | – | inactive: -0.188% [at 9.22 µM] |
| CCCC(=O)C1=C(O)C(C(=O)OC)C(C)(C)CC1=Nc1cccc2ccccc12 (configuration not stated) | active: 11.2 µM | – |
| CCn1c(SCC(=O)OC2CCCCC2)nc2ccccc2c1=O | active: 0.631 µM | – |
| CCC(Sc1nnnn1-c1ccccc1)C(=O)Nc1nc2ccccc2s1 (configuration not stated) | inconclusive: 15.8 µM [inhibitor, single point] | – |
| O=c1c2ccccc2nc2n1CCC2 | – | inactive: 16.9% |
| O=C(O)/C=C/C(=O)Nc1ccccc1SC(F)(F)F | inconclusive: 10 µM [activator, partial curve] | – |
| COc1ccc(/C=C2\SC(=S)N(C(Cc3ccccc3)C(=O)O)C2=O)cc1 (configuration not stated) | – | inactive: 7.52% |
| COc1ccccc1Cn1c(SCC(N)=O)nc2c(oc3ccccc32)c1=O | – | inactive: -12.2% [at 9.22 µM] |
| CC(Oc1ccc(Cl)cc1)C(=O)NNC(=S)NC(=O)c1ccco1 (configuration not stated) | inconclusive: 7.94 µM [inhibitor, partial curve] | – |
| CNC(=S)Nc1sc2c(c1C(=O)OC)CCC2 | – | inactive: -17.7% |
| Cc1c(C(=O)N2CCc3ccccc32)cnn1C | – | inactive: 9.39% |
| CC(=O)C1=C(C)NC(SCC(=O)c2ccccc2)=C(C#N)C1CC(C)C (configuration not stated) | active: 1.58 µM | – |
| CCOc1cccc2sc(NC(=O)c3ccc(Br)s3)nc12 | inconclusive: 10 µM [inhibitor, partial curve] | – |

An excerpt of these results, comma-delimited.
SMILES,Potency,"activity change, negative = inhibition"
CCOC(=O)c1c(NC(=O)CN2CCOCC2)sc2c1CC(C)(C)OC2,–,inactive: 6.36%
COc1cc2nc(CN3CCC(C(O)(c4ccccc4)c4ccccc4)CC3)[nH]c(=O)c2cc1OC,–,inactive: -5.65%
O=C(CN(c1ccc(Cl)c(C(F)(F)F)c1)S(=O)(=O)c1ccccc1)N/N=C/c1cccc2c1OCCO2,"inconclusive: 25.1 µM [inhibitor, single point]",–
